Laboratory results as given in patent US20230365617A1, “SAPONIN DERIVATIVES FOR USE IN MEDICINE” (priority 2020, published 2023).

Test system: EGFR expressing cells (HeLa)
Assay type: cell-based, human
Conditions: red blood cells vs HeLa cells (Table A5)

| Compound | Ratio: IC50 hemolysis / IC50 activity |
| --- | --- |
| CC(=O)OC1C(C)OC(OC2C(C)OC(OC(=O)[C@]34CCC(C)(C)CC3C3=CCC5[C@@]6(C)CC[C@H](OC7OC(C(=O)O)C(O)C(OC8OCC(O)C(O)C8O)C7OC7OC(CO)C(O)C(O)C7O)[C@@](C)(CO)C6CC[C@@]5(C)[C@]3(C)C[C@H]4O)C(OC3OC(C)C(OC4OCC(O)C(OC5OC(CO)C(O)C(O)C5O)C4O)C(O)C3O)C2O)C(O)C1OC1OCC(O)C(O)C1O (some centres unmarked) [SO1861-Ald-OH] | 88 |
| CC(=O)OC1C(C)OC(OC2C(C)OC(OC(=O)[C@]34CCC(C)(C)CC3C3=CCC5[C@@]6(C)CC[C@H](OC7OC(C(=O)NCCN8C(=O)C=CC8=O)C(O)C(OC8OCC(O)C(O)C8O)C7OC7OC(CO)C(O)C(O)C7O)[C@@](C)(CO)C6CC[C@@]5(C)[C@]3(C)C[C@H]4O)C(OC3OC(C)C(OC4OCC(O)C(OC5OC(CO)C(O)C(O)C5O)C4O)C(O)C3O)C2O)C(O)C1OC1OCC(O)C(O)C1O (some centres unmarked) [SO1861-(Glu-AEM)-(Ald-OH)] | >25 |
